Laboratory results published in the supplement of paper PMC10849652.
The list shows a part of the results.

Protein sequences, listed by entry. Tags and fused reporters are not part of them. Lines headed by an entry give the natural chain unless they say otherwise; changes in a name come on top.
UniProt Q5BKX6: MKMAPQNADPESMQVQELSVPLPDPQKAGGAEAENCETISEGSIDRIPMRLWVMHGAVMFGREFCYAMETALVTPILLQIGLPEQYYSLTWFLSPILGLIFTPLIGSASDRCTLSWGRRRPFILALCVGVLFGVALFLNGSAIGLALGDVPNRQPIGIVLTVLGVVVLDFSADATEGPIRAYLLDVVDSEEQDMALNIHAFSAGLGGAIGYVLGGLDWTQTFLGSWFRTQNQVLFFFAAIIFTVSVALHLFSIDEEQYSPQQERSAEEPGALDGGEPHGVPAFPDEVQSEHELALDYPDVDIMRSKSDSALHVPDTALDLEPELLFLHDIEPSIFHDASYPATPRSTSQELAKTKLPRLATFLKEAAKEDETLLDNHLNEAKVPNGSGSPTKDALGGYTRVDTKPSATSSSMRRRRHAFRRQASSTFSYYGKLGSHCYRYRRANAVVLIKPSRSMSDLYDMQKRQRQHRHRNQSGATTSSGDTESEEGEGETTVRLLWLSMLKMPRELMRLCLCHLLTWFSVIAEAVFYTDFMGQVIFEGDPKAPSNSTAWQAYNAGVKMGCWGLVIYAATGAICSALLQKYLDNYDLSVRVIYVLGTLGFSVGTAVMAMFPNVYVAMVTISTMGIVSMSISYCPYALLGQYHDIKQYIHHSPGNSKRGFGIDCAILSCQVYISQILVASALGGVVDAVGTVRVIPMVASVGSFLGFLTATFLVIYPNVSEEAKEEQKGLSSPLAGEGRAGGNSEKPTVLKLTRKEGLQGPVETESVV
UniProt Q6KCM7: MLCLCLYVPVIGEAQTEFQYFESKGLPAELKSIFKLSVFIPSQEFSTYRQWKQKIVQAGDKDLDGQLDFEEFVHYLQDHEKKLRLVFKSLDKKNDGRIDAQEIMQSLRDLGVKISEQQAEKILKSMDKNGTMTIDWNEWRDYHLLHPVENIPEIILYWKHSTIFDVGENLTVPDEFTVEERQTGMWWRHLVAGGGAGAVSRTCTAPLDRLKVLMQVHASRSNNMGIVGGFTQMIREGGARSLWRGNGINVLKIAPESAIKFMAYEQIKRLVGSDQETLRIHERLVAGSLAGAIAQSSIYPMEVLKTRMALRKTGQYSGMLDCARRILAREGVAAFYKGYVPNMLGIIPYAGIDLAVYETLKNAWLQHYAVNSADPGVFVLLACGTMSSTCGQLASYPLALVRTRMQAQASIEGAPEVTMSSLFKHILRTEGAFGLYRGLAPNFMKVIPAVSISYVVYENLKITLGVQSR
UniProt Q9NYZ2: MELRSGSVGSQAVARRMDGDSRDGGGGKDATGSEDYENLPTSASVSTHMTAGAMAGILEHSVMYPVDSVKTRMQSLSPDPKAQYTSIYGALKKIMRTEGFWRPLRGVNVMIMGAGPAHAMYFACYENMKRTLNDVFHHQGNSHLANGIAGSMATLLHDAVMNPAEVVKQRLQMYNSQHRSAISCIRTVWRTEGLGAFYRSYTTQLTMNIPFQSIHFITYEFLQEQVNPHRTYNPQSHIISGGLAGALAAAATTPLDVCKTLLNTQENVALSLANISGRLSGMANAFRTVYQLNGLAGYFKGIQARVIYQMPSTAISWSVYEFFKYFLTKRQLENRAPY
UniProt Q9BWU0: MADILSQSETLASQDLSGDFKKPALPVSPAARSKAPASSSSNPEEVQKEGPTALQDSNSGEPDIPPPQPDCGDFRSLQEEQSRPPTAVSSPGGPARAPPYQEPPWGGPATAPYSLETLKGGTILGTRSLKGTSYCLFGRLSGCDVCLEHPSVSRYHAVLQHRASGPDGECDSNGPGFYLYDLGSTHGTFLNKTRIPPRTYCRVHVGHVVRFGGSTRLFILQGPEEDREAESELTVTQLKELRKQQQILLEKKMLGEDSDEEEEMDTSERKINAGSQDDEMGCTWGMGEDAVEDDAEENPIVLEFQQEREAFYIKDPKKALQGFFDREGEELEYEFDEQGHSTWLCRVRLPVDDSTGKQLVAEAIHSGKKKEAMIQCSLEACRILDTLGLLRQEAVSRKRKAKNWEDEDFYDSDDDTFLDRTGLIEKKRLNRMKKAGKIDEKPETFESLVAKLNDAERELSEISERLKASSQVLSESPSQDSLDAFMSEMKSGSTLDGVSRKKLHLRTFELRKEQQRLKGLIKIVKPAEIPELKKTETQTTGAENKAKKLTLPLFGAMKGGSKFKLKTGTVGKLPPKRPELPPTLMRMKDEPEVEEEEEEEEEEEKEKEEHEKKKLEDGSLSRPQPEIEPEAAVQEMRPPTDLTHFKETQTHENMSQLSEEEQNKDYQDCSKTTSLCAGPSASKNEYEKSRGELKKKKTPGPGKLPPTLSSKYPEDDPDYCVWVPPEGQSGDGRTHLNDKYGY
UniProt Q9Y6M5: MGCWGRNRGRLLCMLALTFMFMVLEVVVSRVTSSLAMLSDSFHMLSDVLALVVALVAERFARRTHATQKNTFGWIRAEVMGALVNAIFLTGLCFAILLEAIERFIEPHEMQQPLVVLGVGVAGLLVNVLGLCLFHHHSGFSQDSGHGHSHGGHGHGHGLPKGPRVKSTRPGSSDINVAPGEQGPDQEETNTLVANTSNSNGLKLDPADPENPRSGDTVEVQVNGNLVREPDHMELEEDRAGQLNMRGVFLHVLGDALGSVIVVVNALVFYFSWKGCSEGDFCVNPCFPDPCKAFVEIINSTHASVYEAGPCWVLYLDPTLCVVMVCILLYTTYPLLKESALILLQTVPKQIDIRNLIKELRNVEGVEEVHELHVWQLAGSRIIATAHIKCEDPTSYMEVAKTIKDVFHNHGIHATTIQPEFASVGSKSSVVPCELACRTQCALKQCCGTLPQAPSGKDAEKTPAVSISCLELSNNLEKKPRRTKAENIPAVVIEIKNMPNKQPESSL
UniProt Q9Y289: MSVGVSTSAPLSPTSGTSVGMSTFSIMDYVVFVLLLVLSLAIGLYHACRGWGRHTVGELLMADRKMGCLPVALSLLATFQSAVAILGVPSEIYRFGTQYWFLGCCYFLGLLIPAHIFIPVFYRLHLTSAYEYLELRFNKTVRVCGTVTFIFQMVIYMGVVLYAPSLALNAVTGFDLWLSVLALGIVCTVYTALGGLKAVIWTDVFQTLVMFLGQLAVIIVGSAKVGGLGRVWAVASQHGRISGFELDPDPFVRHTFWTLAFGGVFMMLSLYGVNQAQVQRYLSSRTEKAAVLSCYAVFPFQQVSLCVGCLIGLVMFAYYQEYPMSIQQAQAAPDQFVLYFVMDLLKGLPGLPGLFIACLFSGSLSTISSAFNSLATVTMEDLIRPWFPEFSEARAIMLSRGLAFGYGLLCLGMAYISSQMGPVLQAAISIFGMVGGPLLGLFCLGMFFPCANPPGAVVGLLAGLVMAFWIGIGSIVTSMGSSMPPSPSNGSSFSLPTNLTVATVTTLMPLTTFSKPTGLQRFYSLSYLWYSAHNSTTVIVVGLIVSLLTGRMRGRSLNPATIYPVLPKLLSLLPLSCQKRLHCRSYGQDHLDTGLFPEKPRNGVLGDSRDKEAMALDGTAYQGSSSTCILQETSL
UniProt Q6NUK1: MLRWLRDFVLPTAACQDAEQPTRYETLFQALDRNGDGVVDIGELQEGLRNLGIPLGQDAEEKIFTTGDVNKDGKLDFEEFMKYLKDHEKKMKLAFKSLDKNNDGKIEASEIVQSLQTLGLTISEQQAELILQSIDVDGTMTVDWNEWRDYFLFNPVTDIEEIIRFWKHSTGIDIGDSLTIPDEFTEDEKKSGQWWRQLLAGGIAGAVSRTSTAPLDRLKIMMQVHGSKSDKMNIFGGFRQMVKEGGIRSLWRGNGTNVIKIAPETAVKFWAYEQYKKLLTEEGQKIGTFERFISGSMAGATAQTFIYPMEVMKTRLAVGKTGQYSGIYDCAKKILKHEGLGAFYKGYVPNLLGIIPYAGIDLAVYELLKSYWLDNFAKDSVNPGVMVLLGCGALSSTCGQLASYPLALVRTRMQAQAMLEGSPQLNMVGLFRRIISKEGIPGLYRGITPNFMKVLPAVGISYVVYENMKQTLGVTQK
UniProt P11169: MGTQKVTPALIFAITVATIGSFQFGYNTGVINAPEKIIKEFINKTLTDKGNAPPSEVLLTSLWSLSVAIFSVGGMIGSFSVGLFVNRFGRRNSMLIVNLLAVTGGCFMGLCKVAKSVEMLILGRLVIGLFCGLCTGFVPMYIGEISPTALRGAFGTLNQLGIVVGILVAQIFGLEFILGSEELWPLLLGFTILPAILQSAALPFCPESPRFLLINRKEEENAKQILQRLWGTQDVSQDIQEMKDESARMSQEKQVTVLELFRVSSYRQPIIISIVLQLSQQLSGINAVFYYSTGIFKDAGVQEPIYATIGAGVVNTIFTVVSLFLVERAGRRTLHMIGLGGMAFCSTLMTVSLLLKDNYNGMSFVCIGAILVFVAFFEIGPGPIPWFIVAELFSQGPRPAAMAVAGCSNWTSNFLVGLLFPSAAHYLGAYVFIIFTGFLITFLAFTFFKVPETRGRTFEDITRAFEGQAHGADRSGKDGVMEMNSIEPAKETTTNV
UniProt Q96H78: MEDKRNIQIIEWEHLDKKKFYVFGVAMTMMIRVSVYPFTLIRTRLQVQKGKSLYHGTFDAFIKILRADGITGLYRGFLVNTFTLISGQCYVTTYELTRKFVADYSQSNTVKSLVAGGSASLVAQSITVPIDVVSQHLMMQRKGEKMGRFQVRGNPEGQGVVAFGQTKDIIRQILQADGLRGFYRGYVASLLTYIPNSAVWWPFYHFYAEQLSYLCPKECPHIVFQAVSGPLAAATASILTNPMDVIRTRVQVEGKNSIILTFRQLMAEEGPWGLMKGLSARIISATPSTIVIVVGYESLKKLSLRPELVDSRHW
UniProt P53985: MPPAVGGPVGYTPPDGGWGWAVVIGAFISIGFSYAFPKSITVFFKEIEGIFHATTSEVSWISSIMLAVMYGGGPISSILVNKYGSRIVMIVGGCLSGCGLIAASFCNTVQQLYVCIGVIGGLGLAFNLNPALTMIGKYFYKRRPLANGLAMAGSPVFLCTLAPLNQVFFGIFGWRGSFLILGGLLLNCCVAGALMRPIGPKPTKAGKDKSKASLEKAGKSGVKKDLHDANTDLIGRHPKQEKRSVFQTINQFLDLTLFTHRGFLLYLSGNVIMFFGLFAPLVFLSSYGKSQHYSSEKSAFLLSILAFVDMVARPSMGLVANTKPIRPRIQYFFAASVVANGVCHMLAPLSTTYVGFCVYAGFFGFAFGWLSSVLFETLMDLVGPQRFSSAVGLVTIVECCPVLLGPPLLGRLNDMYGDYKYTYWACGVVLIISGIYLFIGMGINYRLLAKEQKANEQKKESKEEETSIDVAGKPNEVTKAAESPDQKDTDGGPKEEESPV
UniProt Q9H1U9: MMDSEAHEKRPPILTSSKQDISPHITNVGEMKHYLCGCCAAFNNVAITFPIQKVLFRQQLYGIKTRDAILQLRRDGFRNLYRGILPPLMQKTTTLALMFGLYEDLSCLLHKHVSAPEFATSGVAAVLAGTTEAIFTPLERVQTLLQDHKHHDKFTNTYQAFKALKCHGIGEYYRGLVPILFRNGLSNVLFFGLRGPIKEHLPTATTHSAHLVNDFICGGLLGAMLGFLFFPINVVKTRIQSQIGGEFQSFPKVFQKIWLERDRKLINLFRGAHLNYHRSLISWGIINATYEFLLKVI
UniProt Q8TBP6: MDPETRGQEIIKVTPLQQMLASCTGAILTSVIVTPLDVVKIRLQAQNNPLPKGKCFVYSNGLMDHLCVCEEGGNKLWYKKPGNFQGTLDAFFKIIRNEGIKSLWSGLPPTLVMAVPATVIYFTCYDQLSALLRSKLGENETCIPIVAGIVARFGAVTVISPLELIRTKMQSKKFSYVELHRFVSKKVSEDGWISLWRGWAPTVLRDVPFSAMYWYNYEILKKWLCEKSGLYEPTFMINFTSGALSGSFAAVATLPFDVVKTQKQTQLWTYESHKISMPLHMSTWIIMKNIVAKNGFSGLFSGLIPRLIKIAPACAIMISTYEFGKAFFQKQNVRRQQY
UniProt Q14542: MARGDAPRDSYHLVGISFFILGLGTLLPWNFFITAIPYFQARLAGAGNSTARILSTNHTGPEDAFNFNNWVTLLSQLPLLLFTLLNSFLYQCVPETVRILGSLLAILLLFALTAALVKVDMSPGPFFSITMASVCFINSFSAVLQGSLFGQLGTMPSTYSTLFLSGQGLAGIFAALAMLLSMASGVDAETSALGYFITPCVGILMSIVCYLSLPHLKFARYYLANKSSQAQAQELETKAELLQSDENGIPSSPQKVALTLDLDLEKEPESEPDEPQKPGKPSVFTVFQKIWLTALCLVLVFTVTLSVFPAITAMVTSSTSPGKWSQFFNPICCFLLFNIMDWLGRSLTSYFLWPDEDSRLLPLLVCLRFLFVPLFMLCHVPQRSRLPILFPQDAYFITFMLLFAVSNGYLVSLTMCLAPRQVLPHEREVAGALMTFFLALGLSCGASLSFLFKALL
UniProt L0R6Q1: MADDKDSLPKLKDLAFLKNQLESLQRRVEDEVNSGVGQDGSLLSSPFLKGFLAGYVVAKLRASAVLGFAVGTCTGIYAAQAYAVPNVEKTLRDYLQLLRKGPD

compound: NC(=O)Nc1cc(-c2cccc(F)c2)sc1C(=O)N[C@H]1CCCNC1; experiment: log2 fold change, soluble protein after heating vs DMSO (PISA); higher = thermal stabilisation; K562 cells, 10 uM, 30 min; active = over 0.2 and 3.5 SD of the protein, either way, in both replicates (recomputed)
How it was run: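 For each measurement, 10 μM compound was applied for 30 min to K562 cells at 2×10^6 cells/mL. Aliquots were heated for 3 min across 48°C-58°C, pooled, and extracted in PBS with 0.5% NP-40 at 4°C; the supernatant after 21,000xg for 90 min was soluble protein. This was quantified by TMTpro 16plex LC-MS/MS with channel sums equalised, and thermal stability was reported relative to control samples from duplicates, on a log2 fold-change scale.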

log2 fold change, inactive:
SLC39A10 (UniProt Q9ULF5) -0.087
SLC45A4 isoform 3 (UniProt Q5BKX6) -0.049
SLC3A2 isoform 3 (UniProt P08195) 0.015
SLC20A2 (UniProt Q08357) -0.032
SLC25A25 isoform 3 (UniProt Q6KCM7) -0.013
SLC39A6 (UniProt Q13433) -0.131
SLC30A5 (UniProt Q8TAD4) 0.004
SLC6A8 (UniProt P48029) -0.019
SLC25A1 (UniProt P53007) -0.006
SLC25A37 (UniProt Q9NYZ2) -0.016
SLC4A1AP (UniProt Q9BWU0) -0.032
SLC30A1 (UniProt Q9Y6M5) -0.114
SLC20A1 (UniProt Q8WUM9) -0.089
SLC5A6 (UniProt Q9Y289) -0.093
SLC35B2 (UniProt Q8TB61) -0.023
SLC35A2 isoform 4 (UniProt P78381) -0.004
SLC25A24 (UniProt Q6NUK1) -0.013
SLC1A4 (UniProt P43007) 0.045
SLC25A16 (UniProt P16260) -0.018
SLC25A3 isoform 2 (UniProt Q00325) -0.03
SLC25A22 (UniProt Q9H936) -0.02
SLC7A5 (UniProt Q01650) -0.012
SLC26A6 (UniProt Q9BXS9) 0.015
SLC25A11 (UniProt Q02978) 0.021
SLC2A3 (UniProt P11169) -0.024
SLC25A44 (UniProt Q96H78) 0.007
SLC16A1 (UniProt P53985) -0.189
SLC25A5 (UniProt P05141) 0.024
SLC29A1 isoform 2 (UniProt Q99808) -0.082
SLC25A51 (UniProt Q9H1U9) -0.013
SLC38A10 (UniProt Q9HBR0) 0.019
SLC25A31 (UniProt Q9H0C2) 0.041
SLC25A40 (UniProt Q8TBP6) -0.023
SLC39A8 (UniProt Q9C0K1) -0.053
SLC39A7 (UniProt Q92504) -0.04
SLC29A2 (UniProt Q14542) -0.081
SLC39A14 (UniProt Q15043) -0.037
SLC35A4 (UniProt L0R6Q1) -0.006

2 records drawn at random from those above:
log2 fold change, inactive:
SLC5A6 (UniProt Q9Y289) -0.093
SLC38A10 (UniProt Q9HBR0) 0.019
